Measured values taken from article PMC5520495.
No constants are given. Whether binding was seen depends on the method and setting. Binding seen in cells or lysates may run through a third protein. For part of these data: A result given as binding can be weak or reduced; the word gives no strength.

Amino acid sequences for entries named in this document (tags omitted). A change or cut given only in a name is not applied to a line headed by its entry.
UniProt Q92567: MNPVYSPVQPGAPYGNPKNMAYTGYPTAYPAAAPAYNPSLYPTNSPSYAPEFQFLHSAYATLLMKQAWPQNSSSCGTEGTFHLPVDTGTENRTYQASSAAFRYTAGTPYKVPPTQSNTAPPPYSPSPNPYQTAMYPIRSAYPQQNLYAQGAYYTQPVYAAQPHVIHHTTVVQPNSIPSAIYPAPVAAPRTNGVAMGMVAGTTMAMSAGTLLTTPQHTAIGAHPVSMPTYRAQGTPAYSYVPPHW
UniProt P31749: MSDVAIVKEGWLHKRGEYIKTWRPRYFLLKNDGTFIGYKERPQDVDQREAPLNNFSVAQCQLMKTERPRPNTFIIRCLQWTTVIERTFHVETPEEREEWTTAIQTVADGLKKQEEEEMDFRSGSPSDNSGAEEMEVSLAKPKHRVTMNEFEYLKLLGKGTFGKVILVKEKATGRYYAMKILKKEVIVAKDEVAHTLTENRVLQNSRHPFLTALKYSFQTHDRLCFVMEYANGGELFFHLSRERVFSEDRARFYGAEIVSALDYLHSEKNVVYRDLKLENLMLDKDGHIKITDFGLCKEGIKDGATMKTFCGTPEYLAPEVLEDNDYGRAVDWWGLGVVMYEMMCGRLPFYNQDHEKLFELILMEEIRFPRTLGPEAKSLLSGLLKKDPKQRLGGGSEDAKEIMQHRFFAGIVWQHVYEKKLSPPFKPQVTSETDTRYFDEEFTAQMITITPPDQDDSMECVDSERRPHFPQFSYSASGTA

B1: DsRed-PDK1 (3-phosphoinositide-dependent protein kinase-1) (enzyme, UniProt O15530 1-556)
chain: MARTTSQLYDAVPIQSSVVLCSCPSPSMVRTQTESSTPPGIPGGSRQGPAMDGTAAEPRPGAGSLQHAQPPPQPRKKRPEDFKFGKILGEGSFSTVVLARELATSREYAIKILEKRHIIKENKVPYVTRERDVMSRLDHPFFVKLYFTFQDDEKLYFGLSYAKNGELLKYIRKIGSFDETCTRFYTAEIVSALEYLHGKGIIHRDLKPENILLNEDMHIQITDFGTAKVLSPESKQARANSFVGTAQYVSPELLTEKSACKSSDLWALGCIIYQLVAGLPPFRAGNEYLIFQKIIKLEYDFPEKFFPKARDLVEKLLVLDATKRLGCEEMEGYGPLKAHPFFESVTWENLHQQTPPKLTAYLPAMSEDDEDCYGNYDNLLSQFGCMQVSSSSSSHSLSASDTGLPQRSGSNIEQYIHDLDSNSFELDLQFSEDEKRLLLEKQAGGNPWHQFVENNLILKMGPVDKRKGLFARRRQLLLTEGPHLYYVDPVNKVLKGEIPWSQELRPEAKNFKTFFVHTPNRTYYLMDPSGNAHKWCRKIQEVWRQRYQSHPDAAVQ
B2: PDK1 in total protein extracts of NIH/3T3 cells (enzyme, UniProt Q9Z2A0 1-559)
chain: MARTTSQLYDAVPIQSSVVLCSCPSPSMVRSQTEPGSSPGIPSGVSRQGSTMDGTTAEARPSTNPLQQHPAQLPPQPRKKRPEDFKFGKILGEGSFSTVVLARELATSREYAIKILEKRHIIKENKVPYVTRERDVMSRLDHPFFVKLYFTFQDDEKLYFGLSYAKNGELLKYIRKIGSFDETCTRFYTAEIVSALEYLHGKGIIHRDLKPENILLNEDMHIQITDFGTAKVLSPESKQARANSFVGTAQYVSPELLTEKSACKSSDLWALGCIIYQLVAGLPPFRAGNEYLIFQKIIKLEYHFPEKFFPKARDLVEKLLVLDATKRLGCEEMEGYGPLKAHPFFETITWENLHQQTPPKLTAYLPAMSEDDEDCYGNYDNLLSQFGFMQVSSSSSSHSLSTVETSLPQRSGSNIEQYIHDLDTNSFELDLQFSEDEKRLLLEKQAGGNPWHQFVENNLILKMGPVDKRKGLFARRRQLLLTEGPHLYYVDPVNKVLKGEIPWSQELRPEAKNFKTFFVHTPNRTYYLMDPSGNAHKWCRKIQEVWRQQYQSNPDAAVQ

Assays:
[1] = molecular target: EGFP-TCRP1 (tongue cancer resistance-related protein 1) (human) (UniProt Q92567); assay: FRET or BRET; live NIH/3T3 or 293T (HEK293) cells co-transfected with EGFP and DsRed fusions; 48 h after transfection, room temperature; 130 mM NaCl, 5 mM MgCl2, 2 mM CaCl2, 5 mM HEPES, 1 mM EGTA, pH 7.4; quenching of GFP monitored during DsRed photobleaching
[2] = molecular target: EGFP-TCRP1/mut1 (deletion mutant of TCRP1) (human) (UniProt Q92567); assay: as above
[3] = molecular target: EGFP-TCRP1/mut2 (deletion mutant of TCRP1) (human) (UniProt Q92567); assay: as above
[4] = molecular target: EGFP-TCRP1/mut1 (deletion mutant of TCRP1) (human) (UniProt Q92567); assay: co-IP; total protein extracts of NIH/3T3 cells (untransfected as told, or transfected with pEGFP-TCRP1/mut1 or mut2); IP with TCRP1 antibody or control IgG and blot for PDK1, and the reverse; co-IP buffer 10 mM HEPES pH 8.0, 300 mM NaCl, 0.1 mM EDTA, 20% glycerol, 0.2% NP-40; 4 °C overnight; Protein A/G gel, 6 washes
[5] = molecular target: EGFP-TCRP1/mut2 (deletion mutant of TCRP1) (human) (UniProt Q92567); assay: as above

Molecule	binding [1]	binding [2]	binding [3]	binding [4]	binding [5]
DsRed-Akt1 (from UniProt P31749 1-480) (enzyme)	no binding	–	–	–	–
B1	binds	no binding	no binding	–	–
B2	–	–	–	no binding	no binding
